Experimental data from publication PMC10904051.
No constants are given. Whether binding was seen depends on the method and setting. Binding seen in cells or lysates may run through a third protein. Some binding calls cover weakened binding; strength is not graded here.

Chains of the proteins cited; added tags and fusions are not shown.
UniProt P54252: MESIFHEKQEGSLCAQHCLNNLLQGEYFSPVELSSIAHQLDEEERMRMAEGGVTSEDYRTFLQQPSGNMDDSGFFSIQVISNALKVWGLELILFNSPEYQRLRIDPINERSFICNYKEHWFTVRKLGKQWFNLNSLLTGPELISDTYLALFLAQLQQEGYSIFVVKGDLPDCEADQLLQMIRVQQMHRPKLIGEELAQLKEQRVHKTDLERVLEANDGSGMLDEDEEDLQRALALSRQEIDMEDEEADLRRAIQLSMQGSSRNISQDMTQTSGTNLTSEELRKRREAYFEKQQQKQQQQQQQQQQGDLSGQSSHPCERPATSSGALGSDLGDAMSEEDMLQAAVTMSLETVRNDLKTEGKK
UniProt Q9CVD2: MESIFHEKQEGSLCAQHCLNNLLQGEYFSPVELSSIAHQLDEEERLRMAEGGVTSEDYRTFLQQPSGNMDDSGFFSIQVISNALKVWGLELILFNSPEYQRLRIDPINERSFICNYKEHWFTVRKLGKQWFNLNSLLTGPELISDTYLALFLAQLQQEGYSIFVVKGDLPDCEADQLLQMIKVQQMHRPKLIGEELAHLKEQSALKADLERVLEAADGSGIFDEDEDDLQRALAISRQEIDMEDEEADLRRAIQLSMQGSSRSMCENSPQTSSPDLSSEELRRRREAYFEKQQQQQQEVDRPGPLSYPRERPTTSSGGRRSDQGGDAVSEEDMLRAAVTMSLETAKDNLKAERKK
UniProt P04150: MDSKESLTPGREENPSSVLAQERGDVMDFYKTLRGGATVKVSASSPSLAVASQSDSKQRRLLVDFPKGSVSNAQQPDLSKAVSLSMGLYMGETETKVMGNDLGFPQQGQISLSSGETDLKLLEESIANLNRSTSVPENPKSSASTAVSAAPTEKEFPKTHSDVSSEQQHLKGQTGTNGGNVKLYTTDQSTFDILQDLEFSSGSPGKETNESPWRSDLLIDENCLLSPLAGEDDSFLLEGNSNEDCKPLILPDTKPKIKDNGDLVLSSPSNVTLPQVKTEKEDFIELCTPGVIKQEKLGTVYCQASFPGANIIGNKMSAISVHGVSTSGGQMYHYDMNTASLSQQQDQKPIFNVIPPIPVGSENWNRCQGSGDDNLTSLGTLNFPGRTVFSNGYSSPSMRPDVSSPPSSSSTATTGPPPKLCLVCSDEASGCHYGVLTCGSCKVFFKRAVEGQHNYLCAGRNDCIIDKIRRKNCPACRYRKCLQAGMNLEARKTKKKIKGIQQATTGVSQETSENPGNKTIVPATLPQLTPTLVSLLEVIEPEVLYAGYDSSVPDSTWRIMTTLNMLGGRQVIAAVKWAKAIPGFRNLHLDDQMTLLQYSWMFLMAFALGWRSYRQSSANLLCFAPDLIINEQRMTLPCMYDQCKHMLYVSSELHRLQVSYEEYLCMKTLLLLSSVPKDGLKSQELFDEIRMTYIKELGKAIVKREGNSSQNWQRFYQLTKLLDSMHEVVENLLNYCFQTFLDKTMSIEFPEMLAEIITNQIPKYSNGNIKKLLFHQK
UniProt P06537: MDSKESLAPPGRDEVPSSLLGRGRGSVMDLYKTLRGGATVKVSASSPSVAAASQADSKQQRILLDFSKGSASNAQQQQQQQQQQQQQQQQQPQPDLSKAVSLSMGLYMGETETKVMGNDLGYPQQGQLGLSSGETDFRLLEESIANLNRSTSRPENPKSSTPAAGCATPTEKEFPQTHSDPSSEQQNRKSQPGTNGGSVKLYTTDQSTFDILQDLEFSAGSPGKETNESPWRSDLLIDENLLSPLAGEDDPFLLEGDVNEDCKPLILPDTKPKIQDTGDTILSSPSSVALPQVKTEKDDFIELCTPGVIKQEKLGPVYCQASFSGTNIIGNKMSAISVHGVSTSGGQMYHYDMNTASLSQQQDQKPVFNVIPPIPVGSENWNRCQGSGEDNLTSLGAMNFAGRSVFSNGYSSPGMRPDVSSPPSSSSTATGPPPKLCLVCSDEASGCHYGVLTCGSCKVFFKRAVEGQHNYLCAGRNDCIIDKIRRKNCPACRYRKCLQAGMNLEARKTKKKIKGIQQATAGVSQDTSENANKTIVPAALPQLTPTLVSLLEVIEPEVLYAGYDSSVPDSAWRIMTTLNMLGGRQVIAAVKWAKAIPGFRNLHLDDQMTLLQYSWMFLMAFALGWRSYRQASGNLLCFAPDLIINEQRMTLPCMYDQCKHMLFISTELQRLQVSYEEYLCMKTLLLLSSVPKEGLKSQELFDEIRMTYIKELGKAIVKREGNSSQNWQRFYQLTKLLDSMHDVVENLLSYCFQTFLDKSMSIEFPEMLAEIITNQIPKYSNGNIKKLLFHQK

Assays:
[1] = target: ataxin-3 (ATXN3), endogenous, SH-SY5Y cells (human (endogenous in SH-SY5Y)) (UniProt P54252); assay: proximity ligation; Duolink PLA in fixed, permeabilized SH-SY5Y cells; mouse anti-ATXN3 1H9 and rabbit anti-GR; controls: no primary antibodies, ATXN3 knock-down cells
[2] = target: ataxin-3 (ATXN3), endogenous, mouse brain (mouse (endogenous in mouse brain)) (UniProt Q9CVD2); assay: co-IP; Dynabeads coupled with rabbit anti-ATXN3 (anti-MJD, MJD1-1) incubated with 2 mg lysate of cerebellum and brainstem of WT mice, 4°C, 16 h; lysis buffer 50 mM Tris-HCl, 150 mM NaCl, 1 mM EDTA, 10% glycerol, 1% NP-40; blot for GR and ATXN3 (1H9); rabbit IgG isotype control

Substance | binding [1] | binding [2]
glucocorticoid receptor (GR), endogenous, SH-SY5Y cells (from UniProt P04150 1-777) | binds | 
glucocorticoid receptor (GR), endogenous, mouse brain (from UniProt P06537 1-792) |  | binds
